The supplement of paper PMC10849652
This is one part of the list.

The chains behind the UniProt entries cited, without tags or fusion partners. Where a name states a change or a piece, a line headed by the entry shows the natural chain unless it says otherwise.
UniProt P60604: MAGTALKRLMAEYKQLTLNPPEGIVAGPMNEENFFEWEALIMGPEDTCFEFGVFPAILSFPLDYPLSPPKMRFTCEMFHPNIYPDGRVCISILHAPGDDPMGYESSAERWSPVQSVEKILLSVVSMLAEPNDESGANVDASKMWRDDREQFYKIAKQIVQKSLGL
UniProt Q8WVN8: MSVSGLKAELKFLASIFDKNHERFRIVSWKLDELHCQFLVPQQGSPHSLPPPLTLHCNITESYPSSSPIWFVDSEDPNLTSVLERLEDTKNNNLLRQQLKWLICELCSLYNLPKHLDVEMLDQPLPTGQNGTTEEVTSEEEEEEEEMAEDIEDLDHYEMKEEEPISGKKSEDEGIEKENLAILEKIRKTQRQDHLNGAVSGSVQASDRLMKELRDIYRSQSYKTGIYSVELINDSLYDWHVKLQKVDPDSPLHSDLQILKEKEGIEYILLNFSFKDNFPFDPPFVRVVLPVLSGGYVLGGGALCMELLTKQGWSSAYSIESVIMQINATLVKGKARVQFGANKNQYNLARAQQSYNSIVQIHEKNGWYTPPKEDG
UniProt Q9NZI7: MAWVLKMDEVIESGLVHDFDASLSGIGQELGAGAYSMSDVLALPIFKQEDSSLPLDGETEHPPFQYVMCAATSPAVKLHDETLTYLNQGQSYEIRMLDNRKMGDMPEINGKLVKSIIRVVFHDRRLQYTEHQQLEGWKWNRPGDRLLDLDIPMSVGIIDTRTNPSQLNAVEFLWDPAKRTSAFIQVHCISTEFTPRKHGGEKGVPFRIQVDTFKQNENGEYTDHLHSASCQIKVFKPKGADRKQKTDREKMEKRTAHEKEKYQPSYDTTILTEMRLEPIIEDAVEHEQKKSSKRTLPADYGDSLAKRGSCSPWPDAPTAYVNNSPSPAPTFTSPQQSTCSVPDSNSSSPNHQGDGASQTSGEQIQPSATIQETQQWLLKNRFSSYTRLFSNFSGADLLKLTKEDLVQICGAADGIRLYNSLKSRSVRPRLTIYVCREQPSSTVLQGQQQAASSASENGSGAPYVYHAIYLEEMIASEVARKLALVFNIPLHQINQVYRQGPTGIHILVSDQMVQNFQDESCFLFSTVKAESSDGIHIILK
UniProt A6NNZ2, whole entry, looked up: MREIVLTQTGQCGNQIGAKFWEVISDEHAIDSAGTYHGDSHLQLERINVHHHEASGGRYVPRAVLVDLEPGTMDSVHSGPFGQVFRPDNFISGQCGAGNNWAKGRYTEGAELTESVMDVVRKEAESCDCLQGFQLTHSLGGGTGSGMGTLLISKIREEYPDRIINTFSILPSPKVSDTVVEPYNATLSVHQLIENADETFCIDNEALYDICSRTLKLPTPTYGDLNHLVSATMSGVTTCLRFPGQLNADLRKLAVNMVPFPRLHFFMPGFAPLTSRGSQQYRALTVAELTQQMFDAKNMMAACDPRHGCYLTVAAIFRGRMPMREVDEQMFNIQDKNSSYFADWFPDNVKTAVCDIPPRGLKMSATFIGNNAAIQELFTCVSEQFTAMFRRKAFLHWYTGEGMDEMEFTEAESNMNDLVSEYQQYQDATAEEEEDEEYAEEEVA
UniProt Q9BZL1: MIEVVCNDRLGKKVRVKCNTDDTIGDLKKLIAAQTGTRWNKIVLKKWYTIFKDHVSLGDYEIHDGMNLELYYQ
UniProt P68036, whole entry, looked up: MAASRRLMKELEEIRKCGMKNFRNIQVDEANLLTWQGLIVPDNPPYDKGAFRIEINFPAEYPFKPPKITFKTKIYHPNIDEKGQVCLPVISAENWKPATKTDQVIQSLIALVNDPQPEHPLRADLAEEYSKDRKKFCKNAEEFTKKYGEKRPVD
UniProt Q9NUQ3: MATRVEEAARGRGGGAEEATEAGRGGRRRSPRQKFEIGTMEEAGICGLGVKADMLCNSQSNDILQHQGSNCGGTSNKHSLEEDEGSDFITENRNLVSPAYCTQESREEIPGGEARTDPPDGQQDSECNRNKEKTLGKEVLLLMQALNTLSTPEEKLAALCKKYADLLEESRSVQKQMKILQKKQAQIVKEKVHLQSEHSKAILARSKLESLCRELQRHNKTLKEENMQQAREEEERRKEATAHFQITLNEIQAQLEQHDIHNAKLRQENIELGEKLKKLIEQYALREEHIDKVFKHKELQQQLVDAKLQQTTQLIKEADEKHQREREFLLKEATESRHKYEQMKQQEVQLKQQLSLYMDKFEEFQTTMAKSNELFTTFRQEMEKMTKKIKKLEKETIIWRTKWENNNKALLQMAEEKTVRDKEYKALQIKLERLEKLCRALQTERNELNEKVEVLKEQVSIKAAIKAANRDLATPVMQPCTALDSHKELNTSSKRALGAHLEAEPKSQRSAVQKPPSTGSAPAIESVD
UniProt Q14157: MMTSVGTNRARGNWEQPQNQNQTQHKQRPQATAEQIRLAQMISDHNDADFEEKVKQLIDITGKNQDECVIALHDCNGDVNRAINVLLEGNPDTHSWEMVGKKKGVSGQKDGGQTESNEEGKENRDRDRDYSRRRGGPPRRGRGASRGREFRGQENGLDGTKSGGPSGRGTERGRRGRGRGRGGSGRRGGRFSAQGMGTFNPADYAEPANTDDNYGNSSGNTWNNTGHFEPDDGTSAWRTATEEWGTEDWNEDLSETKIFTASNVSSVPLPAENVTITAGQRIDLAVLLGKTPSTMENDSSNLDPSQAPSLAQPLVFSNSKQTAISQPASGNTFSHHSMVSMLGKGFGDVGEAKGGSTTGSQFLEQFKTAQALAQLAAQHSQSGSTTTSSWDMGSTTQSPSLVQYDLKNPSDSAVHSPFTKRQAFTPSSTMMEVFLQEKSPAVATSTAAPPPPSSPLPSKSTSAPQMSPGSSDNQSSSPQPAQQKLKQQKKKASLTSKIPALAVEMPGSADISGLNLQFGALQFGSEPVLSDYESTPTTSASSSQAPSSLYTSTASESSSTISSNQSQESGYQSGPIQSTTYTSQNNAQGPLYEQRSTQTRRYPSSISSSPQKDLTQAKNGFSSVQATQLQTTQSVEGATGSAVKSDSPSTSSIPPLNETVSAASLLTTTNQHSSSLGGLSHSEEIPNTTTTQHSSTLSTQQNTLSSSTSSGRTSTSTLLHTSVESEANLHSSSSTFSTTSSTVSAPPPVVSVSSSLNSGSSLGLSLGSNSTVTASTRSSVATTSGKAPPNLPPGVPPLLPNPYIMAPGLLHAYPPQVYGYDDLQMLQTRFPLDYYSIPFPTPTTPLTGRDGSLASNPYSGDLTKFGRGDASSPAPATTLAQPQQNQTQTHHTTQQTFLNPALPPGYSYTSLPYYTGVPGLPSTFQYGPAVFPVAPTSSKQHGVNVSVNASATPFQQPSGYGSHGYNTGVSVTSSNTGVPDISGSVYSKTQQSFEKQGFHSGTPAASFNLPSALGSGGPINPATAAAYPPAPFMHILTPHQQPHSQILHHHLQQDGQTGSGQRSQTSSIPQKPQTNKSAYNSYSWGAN
UniProt P62256: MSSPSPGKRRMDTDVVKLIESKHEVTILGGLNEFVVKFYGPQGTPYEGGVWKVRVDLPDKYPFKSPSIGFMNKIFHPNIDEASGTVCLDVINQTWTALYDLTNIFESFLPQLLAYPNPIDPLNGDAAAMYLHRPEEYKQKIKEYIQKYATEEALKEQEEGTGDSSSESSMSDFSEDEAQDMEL
UniProt Q9H3M7: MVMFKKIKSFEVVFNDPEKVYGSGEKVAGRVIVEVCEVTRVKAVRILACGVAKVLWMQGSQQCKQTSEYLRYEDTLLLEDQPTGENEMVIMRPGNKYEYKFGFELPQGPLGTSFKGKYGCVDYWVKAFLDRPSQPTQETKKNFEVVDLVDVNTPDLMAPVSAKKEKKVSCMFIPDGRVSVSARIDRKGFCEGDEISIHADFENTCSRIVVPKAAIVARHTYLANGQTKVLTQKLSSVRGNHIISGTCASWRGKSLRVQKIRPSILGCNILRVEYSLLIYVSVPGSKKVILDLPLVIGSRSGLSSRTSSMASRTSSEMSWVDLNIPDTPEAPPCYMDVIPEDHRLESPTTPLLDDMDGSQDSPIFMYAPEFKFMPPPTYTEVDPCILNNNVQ
UniProt Q9NY65, whole entry, looked up: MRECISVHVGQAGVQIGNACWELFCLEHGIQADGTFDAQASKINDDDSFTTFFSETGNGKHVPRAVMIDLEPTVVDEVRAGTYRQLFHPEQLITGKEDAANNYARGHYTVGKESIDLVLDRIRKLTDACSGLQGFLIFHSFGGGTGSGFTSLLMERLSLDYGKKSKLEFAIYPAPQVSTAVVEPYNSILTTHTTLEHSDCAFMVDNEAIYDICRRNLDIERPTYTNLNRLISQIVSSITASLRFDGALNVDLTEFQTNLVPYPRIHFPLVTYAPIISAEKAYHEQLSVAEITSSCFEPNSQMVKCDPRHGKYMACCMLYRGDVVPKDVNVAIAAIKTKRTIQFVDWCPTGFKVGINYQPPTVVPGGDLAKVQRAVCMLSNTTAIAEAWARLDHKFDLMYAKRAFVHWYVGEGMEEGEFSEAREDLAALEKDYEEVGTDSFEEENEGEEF
UniProt Q16222: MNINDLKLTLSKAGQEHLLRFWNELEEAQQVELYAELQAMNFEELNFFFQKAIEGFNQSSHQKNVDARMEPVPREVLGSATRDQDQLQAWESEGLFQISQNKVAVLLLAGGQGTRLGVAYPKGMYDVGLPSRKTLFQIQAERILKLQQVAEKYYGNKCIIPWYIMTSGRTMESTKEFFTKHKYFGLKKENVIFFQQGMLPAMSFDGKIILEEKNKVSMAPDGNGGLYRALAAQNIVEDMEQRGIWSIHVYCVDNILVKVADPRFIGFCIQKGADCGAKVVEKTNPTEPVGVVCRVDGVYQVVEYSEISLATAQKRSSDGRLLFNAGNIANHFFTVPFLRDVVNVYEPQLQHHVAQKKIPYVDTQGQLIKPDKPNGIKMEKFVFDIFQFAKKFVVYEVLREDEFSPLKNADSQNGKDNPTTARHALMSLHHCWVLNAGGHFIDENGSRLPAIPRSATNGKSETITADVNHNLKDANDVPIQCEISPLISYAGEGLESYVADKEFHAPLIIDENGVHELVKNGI
UniProt Q9BVA1, whole entry, looked up: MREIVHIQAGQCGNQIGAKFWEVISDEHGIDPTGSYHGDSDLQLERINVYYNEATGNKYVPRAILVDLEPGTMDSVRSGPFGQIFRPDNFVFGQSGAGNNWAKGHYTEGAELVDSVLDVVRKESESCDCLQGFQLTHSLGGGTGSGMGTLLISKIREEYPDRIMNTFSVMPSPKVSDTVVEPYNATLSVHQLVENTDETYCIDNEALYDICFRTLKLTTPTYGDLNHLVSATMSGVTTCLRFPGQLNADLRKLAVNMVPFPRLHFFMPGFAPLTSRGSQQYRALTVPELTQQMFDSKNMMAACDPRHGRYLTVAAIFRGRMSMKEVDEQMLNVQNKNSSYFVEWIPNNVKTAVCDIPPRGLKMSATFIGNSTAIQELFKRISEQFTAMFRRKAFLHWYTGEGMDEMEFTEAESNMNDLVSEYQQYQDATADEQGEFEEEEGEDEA
UniProt P23258, whole entry, looked up: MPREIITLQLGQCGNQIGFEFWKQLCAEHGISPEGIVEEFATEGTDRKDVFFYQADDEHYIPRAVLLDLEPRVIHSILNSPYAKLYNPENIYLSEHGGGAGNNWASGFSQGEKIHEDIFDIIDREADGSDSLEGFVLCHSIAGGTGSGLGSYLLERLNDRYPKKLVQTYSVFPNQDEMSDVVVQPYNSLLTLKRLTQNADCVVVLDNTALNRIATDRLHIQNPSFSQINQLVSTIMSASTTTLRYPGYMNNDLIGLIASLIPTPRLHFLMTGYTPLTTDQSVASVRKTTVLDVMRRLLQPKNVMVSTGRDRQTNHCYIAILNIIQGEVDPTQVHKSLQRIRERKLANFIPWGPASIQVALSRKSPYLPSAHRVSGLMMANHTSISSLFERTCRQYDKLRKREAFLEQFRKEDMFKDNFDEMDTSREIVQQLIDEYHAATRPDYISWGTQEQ
UniProt O75386: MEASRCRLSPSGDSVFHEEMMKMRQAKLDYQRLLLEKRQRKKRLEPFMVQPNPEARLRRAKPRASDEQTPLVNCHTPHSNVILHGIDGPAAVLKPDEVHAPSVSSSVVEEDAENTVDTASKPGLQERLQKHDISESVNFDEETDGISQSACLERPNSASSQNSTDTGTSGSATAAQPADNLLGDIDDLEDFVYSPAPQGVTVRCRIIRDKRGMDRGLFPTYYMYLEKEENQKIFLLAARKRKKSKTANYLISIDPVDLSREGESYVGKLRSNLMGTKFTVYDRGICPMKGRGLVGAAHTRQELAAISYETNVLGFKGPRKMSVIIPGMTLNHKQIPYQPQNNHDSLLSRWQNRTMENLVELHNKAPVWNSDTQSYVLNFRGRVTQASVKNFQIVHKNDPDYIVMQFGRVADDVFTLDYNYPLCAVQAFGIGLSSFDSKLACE

Tests used:
Assay in all cases: log2 fold change, soluble protein after heating vs DMSO (PISA); higher = thermal stabilisation; K562 lysate, 10 uM; active = over 0.2 and 3.5 SD of the protein, either way, in both replicates (recomputed)
nilotinib = compound: Cc1cn(-c2cc(NC(=O)c3ccc(C)c(Nc4nccc(-c5cccnc5)n4)c3)cc(C(F)(F)F)c2)cn1 [nilotinib]
Outline: (§1)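 Thermal stability, expressed as log-two fold change relative to solvent controls, is given from duplicates. Crude K562 extract in PBS pH 7.4 with 1 mM MgCl2, at 1 mg/mL protein, was treated with 10 μM compound for 30 min and heated in aliquots for 3 min across 48°C-58°C. After pooling, adjustment to 0.5% NP-40 at 4°C and centrifugation at 21,000xg for 90 min, supernatant protein was measured by TMTpro 16plex LC-MS/MS with channel sums equalised.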

[1] = compound: Cc1nc(Nc2n[nH]c3c2CN(C(=O)N[C@H](CN(C)C)c2ccccc2)C3(C)C)c2sccc2n1
Outline: as §1

dasatinib = compound: Cc1nc(Nc2ncc(C(=O)Nc3c(C)cccc3Cl)s2)cc(N2CCN(CCO)CC2)n1 [dasatinib]
Outline: as §1

[2] = compound: Cc1ncc(-c2ccnc(Nc3ccc(S(C)(=O)=O)cc3)n2)n1C(C)C
Outline: as §1

[3] = compound: Cn1cc(-c2ccc3c(c2)CCN3C(=O)Cc2cccc(C(F)(F)F)c2)c2c(N)ncnc21
Outline: as §1

quisinostat = compound: Cn1cc(CNCC2CCN(c3ncc(C(=O)NO)cn3)CC2)c2ccccc21 [quisinostat]
Outline: as §1

tipifarnib = compound: Cn1cncc1[C@@](N)(c1ccc(Cl)cc1)c1ccc2c(c1)c(-c1cccc(Cl)c1)cc(=O)n2C [tipifarnib]
Outline: as §1

[4] = compound: NC(=O)Nc1cc(-c2cccc(F)c2)sc1C(=O)N[C@H]1CCCNC1
Outline: as §1

[5] = compound: NC(=O)c1cnc(N[C@@H]2CCCC[C@@H]2N)nc1Nc1cccc(-n2nccn2)c1
Outline: as §1

[6] = compound: NC1(c2ccc(-c3nc4ccn5c(=O)[nH]nc5c4cc3-c3ccccc3)cc2)CCC1
Outline: as §1

| Target | log2 fold change (nilotinib) | log2 fold change [1] | log2 fold change (dasatinib) | log2 fold change [2] | log2 fold change [3] | log2 fold change (quisinostat) | log2 fold change (tipifarnib) | log2 fold change [4] | log2 fold change [5] | log2 fold change [6] |
| --- | --- | --- | --- | --- | --- | --- | --- | --- | --- | --- |
| UBE2G2 (UniProt P60604) | inactive: 0.023 | inactive: 0.071 | inactive: 0.021 | inactive: -0.07 | inactive: -0.039 | inactive: 0.044 | inactive: -0.072 | inactive: -0.068 | inactive: -0.009 | inactive: 0.066 |
| UBE2Q2 (UniProt Q8WVN8) | inactive: -0.065 | inactive: -0.057 | inactive: 0.076 | inactive: -0.14 | inactive: -0.013 |  | inactive: 0.079 |  | inactive: -0.091 | inactive: 0.097 |
| UBP1 (UniProt Q9NZI7) | inactive: -0.019 | inactive: -0.039 | inactive: 0.008 | inactive: 0.05 | inactive: 0.002 | inactive: -0.125 | inactive: -0.084 | inactive: 0.01 | inactive: 0.008 | inactive: -0.058 |
| TUBB8B (UniProt A6NNZ2) | inactive: -0.054 | inactive: 0.04 | inactive: -0.035 | inactive: 0.02 | inactive: -0.024 |  | inactive: 0.097 |  | inactive: 0.153 |  |
| UBL5 (UniProt Q9BZL1) | inactive: 0.028 | inactive: 0.154 | inactive: 0.036 | inactive: 0.018 | inactive: 0.027 | active: 0.341 | inactive: 0.031 | inactive: -0.149 |  | inactive: -0.013 |
| TUBA1C (UniProt Q9BQE3) | inactive: -0.001 | inactive: 0.021 | inactive: -0.017 | inactive: 0.006 | inactive: 0.018 | inactive: -0.038 | inactive: -0.007 | inactive: 0.014 | inactive: -0.006 | inactive: -0.052 |
| UBE2L3 isoform 3 (UniProt P68036) | inactive: -0.012 | inactive: -0.007 | inactive: 0.027 | inactive: 0.014 | inactive: -0.041 | inactive: 0.024 | inactive: 0.043 | inactive: -0.004 | inactive: 0 | inactive: 0.047 |
| TXLNG (UniProt Q9NUQ3) | inactive: 0.009 | inactive: -0.008 | inactive: 0.019 | inactive: -0.001 | inactive: 0.007 | inactive: 0.025 | inactive: 0.011 | inactive: -0.008 | inactive: -0.006 | inactive: 0.015 |
| UBAP2L isoform 1 (UniProt Q14157) | inactive: -0.03 | inactive: -0.081 |  | inactive: 0.09 |  | inactive: 0.613 | inactive: -0.067 | inactive: 0.081 |  |  |
| UBE2H (UniProt P62256) | inactive: -0.021 | inactive: -0.041 | inactive: 0.046 | inactive: 0.02 | inactive: 0.021 | inactive: -0.015 | inactive: -0.049 | inactive: 0.014 | inactive: 0.005 | inactive: -0.041 |
| TXNIP (UniProt Q9H3M7) | inactive: 0.091 | inactive: 0.038 | inactive: -0.023 | inactive: -0.026 | inactive: 0.012 | inactive: -0.077 | inactive: -0.022 | inactive: 0.029 |  | inactive: 0.005 |
| TUBA8 (UniProt Q9NY65) | inactive: -0.047 | inactive: -0.008 | inactive: -0.124 | inactive: -0.085 | inactive: -0.007 |  | inactive: 0.003 |  |  | inactive: -0.095 |
| UAP1 (UniProt Q16222) | inactive: 0.017 | inactive: -0.002 | inactive: -0.01 | inactive: -0.018 | inactive: -0.015 | inactive: 0.015 | inactive: 0.005 | inactive: 0.023 | inactive: 0.004 | inactive: 0.005 |
| UBA52 (UniProt P62987) | inactive: 0.004 | inactive: 0.111 |  | inactive: 0.028 |  | inactive: -0.015 | inactive: -0.077 | inactive: 0.029 | inactive: 0.043 | inactive: -0.02 |
| TUBB2B (UniProt Q9BVA1) | inactive: -0.063 | inactive: 0.11 | inactive: 0.046 | inactive: 0.044 | inactive: 0.064 |  | inactive: 0.008 |  | inactive: -0.154 |  |
| TUBG1 (UniProt P23258) | inactive: 0.04 | inactive: -0.005 | inactive: -0.098 | inactive: 0.013 | inactive: 0.046 | inactive: -0.026 | inactive: -0.051 | inactive: 0.068 | inactive: 0.03 | inactive: 0.024 |
| TULP3 isoform 2 (UniProt O75386) | inactive: -0.194 | inactive: 0.275 | inactive: 0.004 | inactive: 0.242 | inactive: -0.016 |  | inactive: 0.113 |  |  | inactive: -0.21 |

Two entries drawn at random from those above, as already listed:

| Target | log2 fold change (nilotinib) | log2 fold change [1] | log2 fold change (dasatinib) | log2 fold change [2] | log2 fold change [3] | log2 fold change (quisinostat) | log2 fold change (tipifarnib) | log2 fold change [4] | log2 fold change [5] | log2 fold change [6] |
| --- | --- | --- | --- | --- | --- | --- | --- | --- | --- | --- |
| TUBA1C (UniProt Q9BQE3) | inactive: -0.001 | inactive: 0.021 | inactive: -0.017 | inactive: 0.006 | inactive: 0.018 | inactive: -0.038 | inactive: -0.007 | inactive: 0.014 | inactive: -0.006 | inactive: -0.052 |
| TULP3 isoform 2 (UniProt O75386) | inactive: -0.194 | inactive: 0.275 | inactive: 0.004 | inactive: 0.242 | inactive: -0.016 |  | inactive: 0.113 |  |  | inactive: -0.21 |
